Plain letter strings leave the end groups untold. Where no end group is shown, it is not given here.
Assay: general procedure: Fmoc solid-phase peptide synthesis; pre-loaded 2-chlorotrityl chloride resin (0.6 mmol/g); Oxyma/DIC
Conditions: whole synthesis, RP-HPLC, scale of the general procedure 0.12 mmol

Substance	final HPLC purity
VAHQLQALRRG (CgA429-439)	95.9%
VGAGRRYASN	96.1%

Same assay, conditions: whole synthesis, RP-HPLC, scale of the general procedure 0.12 mmol, one disulfide bridge, sequence written open

Substance	final HPLC purity
AGCGRRYCSN	96.0%
CSGIGSGGC	94.1%
VACGRRYCSN	95.2%
VGCARRYCS	91.9%
VGCARRYCSN	93.1%
VGCGARYCSN	96.4%
VGCGRAYCSN	95.4%
VGCGRRACSN	95.1%
VGCGRRYCAN	95.9%

Assay: peptide made by a vendor (peptide synthesis; pre-loaded 2-chlorotrityl chloride resin (0.6 mmol/g); Oxyma/DIC)
Conditions: whole synthesis, RP-HPLC, scale of the general procedure 0.12 mmol

Substance	final HPLC purity
Ac-VGCARRYCSN (cysteine pairing not given here)	95.5%

Same assay, conditions: whole synthesis, RP-HPLC, scale of the general procedure 0.12 mmol, one disulfide bridge, sequence written open

Substance	final HPLC purity
GCARRYCS	93.1%
GCARRYCSN	93.8%
GCRSNCYRVG	98.1%
VGCARRYC	93.8%
VGCARRYCS	99.4%
VGCARRYCSGGSGGGSGK-bio	95.7%
VGCARRYCSN	96.3%
VGCGRRYCSN	95.3%
